According to US20020164697A1:
No constants are given. Whether binding was seen depends on the method and setting. In cells and extracts the contact can be indirect. Some entries that bind do so weakly or less than the wild type.

Sequences of proteins named here, by UniProt entry; tags and fusion partners are left off. A change or cut given only in a name is not applied to a line headed by its entry. Residues count along the entry.
UniProt P27986, residues 2-724: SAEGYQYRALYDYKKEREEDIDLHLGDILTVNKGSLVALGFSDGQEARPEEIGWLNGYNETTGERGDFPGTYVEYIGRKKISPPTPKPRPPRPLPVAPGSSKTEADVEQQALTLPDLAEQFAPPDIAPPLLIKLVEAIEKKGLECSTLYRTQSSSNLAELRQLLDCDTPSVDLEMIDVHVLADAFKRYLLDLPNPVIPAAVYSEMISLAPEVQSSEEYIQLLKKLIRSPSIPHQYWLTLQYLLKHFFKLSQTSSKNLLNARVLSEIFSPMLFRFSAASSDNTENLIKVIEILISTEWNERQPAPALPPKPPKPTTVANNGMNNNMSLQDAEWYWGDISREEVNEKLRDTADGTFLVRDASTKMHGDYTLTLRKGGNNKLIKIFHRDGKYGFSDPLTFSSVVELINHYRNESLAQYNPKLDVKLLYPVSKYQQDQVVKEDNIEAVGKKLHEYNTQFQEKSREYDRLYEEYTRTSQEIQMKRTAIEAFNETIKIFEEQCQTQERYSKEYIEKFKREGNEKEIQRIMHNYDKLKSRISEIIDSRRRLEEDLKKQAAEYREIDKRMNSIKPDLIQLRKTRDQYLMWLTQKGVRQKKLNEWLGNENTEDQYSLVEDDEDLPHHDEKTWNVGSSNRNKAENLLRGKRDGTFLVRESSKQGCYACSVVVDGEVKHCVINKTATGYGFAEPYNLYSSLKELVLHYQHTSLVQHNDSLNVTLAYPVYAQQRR
UniProt P10747: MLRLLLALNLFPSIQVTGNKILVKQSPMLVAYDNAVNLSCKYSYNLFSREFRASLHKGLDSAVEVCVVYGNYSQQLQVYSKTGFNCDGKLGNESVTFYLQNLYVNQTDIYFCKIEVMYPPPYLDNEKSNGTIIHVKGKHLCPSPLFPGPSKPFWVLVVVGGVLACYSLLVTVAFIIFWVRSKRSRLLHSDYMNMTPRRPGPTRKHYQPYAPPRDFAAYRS

Target: p85 subunit of phosphatidylinositol 3-kinase (PI-3K) (UniProt P27986)
Assay: co-immunoprecipitation from Jurkat cells, anti-p85 immunoblot

CD28 on Jurkat cells (hCD28) (from UniProt P10747 19-220) (receptor)
binding: binds
